Assay [1] has as its target integrin β1 (CD29) (UniProt P05556). In words: co-immunoprecipitation from Seax cell lysate with anti-CD51 clone NKI-M9; Western blot with anti-CD29 clone D6S1w. In general terms: A western blot detects proteins with antibodies after separation by electrophoresis.
The target is the same in assay [2]. In words: co-immunoprecipitation from Seax cell lysate with anti-CD51 clone NKI-M9; 8% SDS-PAGE and Western blot.

Protein sequences, listed by entry. Tags and fused reporters are not part of them. Lines headed by an entry give the natural chain unless they say otherwise; changes in a name come on top.
UniProt P05556: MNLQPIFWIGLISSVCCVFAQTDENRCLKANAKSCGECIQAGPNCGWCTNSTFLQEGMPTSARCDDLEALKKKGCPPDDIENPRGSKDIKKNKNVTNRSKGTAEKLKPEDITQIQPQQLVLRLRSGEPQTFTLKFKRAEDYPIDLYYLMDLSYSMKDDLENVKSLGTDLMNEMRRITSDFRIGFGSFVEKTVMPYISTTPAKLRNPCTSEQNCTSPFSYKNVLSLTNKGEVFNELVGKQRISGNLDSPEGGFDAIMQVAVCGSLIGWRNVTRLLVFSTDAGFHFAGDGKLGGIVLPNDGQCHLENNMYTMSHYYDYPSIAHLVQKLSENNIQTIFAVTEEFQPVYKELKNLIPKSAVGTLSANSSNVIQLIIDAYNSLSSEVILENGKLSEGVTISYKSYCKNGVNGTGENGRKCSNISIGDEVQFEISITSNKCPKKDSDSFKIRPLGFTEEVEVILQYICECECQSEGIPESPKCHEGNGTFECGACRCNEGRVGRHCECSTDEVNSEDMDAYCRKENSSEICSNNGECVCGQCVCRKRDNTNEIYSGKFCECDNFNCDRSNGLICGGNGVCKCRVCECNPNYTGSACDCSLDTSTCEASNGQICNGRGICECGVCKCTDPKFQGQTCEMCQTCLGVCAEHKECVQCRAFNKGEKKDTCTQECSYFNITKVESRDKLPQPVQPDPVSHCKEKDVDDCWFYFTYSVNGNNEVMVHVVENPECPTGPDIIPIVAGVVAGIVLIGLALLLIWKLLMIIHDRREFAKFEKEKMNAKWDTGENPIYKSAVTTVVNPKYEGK
UniProt P06756: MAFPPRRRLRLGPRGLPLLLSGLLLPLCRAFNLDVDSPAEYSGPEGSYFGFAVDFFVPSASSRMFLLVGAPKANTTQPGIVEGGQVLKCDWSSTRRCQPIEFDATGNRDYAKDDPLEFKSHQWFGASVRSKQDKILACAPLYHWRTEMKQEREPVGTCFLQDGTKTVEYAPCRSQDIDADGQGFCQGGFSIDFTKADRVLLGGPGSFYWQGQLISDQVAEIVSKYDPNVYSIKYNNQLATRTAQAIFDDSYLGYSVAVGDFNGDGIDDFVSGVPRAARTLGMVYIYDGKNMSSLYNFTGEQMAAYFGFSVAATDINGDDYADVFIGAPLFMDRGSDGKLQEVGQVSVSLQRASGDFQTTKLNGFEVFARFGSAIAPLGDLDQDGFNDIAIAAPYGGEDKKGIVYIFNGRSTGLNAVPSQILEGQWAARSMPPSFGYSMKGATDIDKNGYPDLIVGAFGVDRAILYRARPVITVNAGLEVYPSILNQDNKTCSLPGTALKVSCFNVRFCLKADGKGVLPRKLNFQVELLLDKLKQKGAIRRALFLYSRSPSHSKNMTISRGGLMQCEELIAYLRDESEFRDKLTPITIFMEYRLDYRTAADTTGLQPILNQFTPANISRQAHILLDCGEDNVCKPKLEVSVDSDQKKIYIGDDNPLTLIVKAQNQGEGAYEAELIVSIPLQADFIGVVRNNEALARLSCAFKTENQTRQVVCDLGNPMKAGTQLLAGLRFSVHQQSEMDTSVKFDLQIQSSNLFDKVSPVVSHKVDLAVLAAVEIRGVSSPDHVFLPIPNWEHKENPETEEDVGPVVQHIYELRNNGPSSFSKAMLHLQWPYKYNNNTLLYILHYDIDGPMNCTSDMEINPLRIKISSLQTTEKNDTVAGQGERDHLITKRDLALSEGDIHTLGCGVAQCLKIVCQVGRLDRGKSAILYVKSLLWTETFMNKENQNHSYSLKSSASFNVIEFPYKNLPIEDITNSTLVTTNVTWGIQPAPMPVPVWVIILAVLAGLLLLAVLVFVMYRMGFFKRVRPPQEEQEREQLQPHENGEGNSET

Results are given in words; binding and its absence hold for the method and conditions named. In cells and extracts the contact can be indirect. Some binding calls cover weakened binding; strength is not graded here.

For the substance “CD51 (αV-integrin, integrin alpha-V) (from UniProt P06756 31-1048) (receptor)”, the binding entry with integrin β1 (CD29) [1] and with integrin β1 (CD29) [2] was “binds” each time.

These data come from patent US20250231193A1.
